PubChem BioAssay AID1224830 – NIAID | 2016

Screen: 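Host factors that control LPS-induced TNF expression in human macrophages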 (primary screen)
System: human THP-1 monocytic leukaemia cells, TNF dual-luciferase reporter clone, PMA-differentiated to macrophage-like cells
Knock-down reagent: siRNA pool against human genes, 50 nM
Time to read-out: LPS for 4 h, given about 3 days after siRNA transfection
Treatment: bacterial LPS (TLR4 ligand), 10 ng/ml
Detection: 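Ratio of firefly to renilla light, scaled to the plate median and expressed as a robust z-score per replicate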
Scale: TNF reporter robust z-score: higher = stronger TNF reporter response to LPS
Hit rule: 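Each well counts as active if its z-score is over 2.8 or under -1.5; controls are left without a call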
In all, the deposit lists about 18,000 reagents; this is an unselected part. About 2,900 of them (16%) were called active. 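Calls are made per well; low scores hint the gene aids the LPS response, high scores that it dampens it.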 Repeated entries: four replicate wells of each siRNA pool.

no.	Target gene	TNF reporter robust z-score	activity call
1	AGO3	0.05	inactive
2	AGO3	0.49	inactive
3	AGO3	-0.79	inactive
4	AGO3	0	inactive
5	RTCB	-1.09	inactive
6	RTCB	1.13	inactive
7	RTCB	0.19	inactive
8	RTCB	1.51	inactive
9	MUC4	0.45	inactive
10	MUC4	0.63	inactive
11	MUC4	0.06	inactive
12	MUC4	-0.24	inactive
13	ZC3H18	-1.27	inactive
14	ZC3H18	-0.59	inactive
15	ZC3H18	-0.69	inactive
16	ZC3H18	-0.21	inactive
17	SAR1A		inactive
18	TMEM258	-0.9	inactive
19	TMEM258	-1.15	inactive
20	TMEM258	-0.88	inactive
21	TMEM258	-0.81	inactive
22	C10orf88	1.18	inactive
23	C10orf88	-0.14	inactive
24	C10orf88	0.33	inactive
25	C10orf88	1.02	inactive
26	ZNF703	1.1	inactive
27	ZNF703	1.15	inactive
28	ZNF703	-0.3	inactive
29	ZNF703	1.11	inactive
30	OR6C76	-1.08	inactive
31	OR6C76	-0.36	inactive
32	OR6C76	0.15	inactive
33	OR6C76	-0.46	inactive
34	ZMAT2	-0.27	inactive
35	ZMAT2	0.04	inactive
36	ZMAT2	-0.76	inactive
37	ZMAT2	-0.94	inactive
38	GMCL1	-0.99	inactive
39	GMCL1	-1.33	inactive
40	GMCL1	-1.02	inactive
41	GMCL1	-0.31	inactive
42	AOPEP	0.27	inactive
43	AOPEP	2.31	inactive
44	AOPEP	0.95	inactive
45	AOPEP	1.34	inactive

Part of the list above in another layout:
OR6C76 → TNF reporter robust z-score: -0.36; activity call: inactive
OR6C76 → TNF reporter robust z-score: 0.15; activity call: inactive
OR6C76 → TNF reporter robust z-score: -0.46; activity call: inactive
ZMAT2 → TNF reporter robust z-score: -0.27; activity call: inactive
ZMAT2 → TNF reporter robust z-score: 0.04; activity call: inactive
